Measured values as given in PMC3205025.
Read-outs that look alike come from different tables or passages of the source. No constants are given. Whether binding was seen depends on the method and setting. Binding seen in cells or lysates may run through a third protein. Some entries that bind do so weakly or less than the wild type. One block for each molecule: values may come before it.

Sequences of proteins named here, by UniProt entry; tags and fusion partners are left off.
UniProt P70170: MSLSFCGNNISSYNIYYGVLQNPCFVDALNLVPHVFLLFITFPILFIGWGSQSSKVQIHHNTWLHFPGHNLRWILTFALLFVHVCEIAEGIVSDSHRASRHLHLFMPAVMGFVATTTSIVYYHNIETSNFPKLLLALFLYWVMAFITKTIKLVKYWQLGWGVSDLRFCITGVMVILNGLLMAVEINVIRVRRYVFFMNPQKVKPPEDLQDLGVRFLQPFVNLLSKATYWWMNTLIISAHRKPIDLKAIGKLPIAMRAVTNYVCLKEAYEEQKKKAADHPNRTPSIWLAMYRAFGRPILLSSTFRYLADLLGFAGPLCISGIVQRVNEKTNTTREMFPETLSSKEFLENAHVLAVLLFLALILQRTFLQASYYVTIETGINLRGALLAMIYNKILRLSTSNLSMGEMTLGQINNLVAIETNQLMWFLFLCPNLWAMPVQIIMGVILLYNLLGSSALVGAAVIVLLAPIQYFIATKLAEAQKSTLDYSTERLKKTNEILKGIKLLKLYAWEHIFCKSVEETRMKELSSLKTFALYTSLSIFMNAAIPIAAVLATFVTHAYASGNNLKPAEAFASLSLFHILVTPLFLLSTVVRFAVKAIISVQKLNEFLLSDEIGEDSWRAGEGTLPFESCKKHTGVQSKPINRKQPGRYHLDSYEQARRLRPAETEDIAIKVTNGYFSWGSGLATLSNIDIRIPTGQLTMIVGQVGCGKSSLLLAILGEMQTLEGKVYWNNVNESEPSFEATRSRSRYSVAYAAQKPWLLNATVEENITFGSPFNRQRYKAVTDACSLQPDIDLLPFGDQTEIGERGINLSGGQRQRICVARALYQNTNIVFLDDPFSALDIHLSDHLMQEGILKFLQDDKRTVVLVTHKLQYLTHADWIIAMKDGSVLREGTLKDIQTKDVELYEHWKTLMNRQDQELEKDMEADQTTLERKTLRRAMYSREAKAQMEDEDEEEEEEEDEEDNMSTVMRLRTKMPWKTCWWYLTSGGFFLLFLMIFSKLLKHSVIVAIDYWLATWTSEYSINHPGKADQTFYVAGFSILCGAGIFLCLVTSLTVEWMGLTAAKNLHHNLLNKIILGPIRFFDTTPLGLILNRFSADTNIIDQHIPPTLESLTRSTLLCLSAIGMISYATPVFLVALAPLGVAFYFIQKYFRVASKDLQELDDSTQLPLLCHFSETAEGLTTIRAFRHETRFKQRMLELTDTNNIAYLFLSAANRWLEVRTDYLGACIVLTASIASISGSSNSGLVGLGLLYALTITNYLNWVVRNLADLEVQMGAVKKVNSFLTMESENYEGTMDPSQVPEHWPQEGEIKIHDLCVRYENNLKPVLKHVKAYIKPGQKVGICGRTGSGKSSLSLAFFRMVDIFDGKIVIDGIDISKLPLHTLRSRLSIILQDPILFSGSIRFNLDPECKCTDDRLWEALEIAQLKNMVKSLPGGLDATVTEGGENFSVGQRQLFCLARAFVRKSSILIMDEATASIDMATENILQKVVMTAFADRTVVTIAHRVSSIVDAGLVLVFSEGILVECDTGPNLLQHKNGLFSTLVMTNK
UniProt P11531: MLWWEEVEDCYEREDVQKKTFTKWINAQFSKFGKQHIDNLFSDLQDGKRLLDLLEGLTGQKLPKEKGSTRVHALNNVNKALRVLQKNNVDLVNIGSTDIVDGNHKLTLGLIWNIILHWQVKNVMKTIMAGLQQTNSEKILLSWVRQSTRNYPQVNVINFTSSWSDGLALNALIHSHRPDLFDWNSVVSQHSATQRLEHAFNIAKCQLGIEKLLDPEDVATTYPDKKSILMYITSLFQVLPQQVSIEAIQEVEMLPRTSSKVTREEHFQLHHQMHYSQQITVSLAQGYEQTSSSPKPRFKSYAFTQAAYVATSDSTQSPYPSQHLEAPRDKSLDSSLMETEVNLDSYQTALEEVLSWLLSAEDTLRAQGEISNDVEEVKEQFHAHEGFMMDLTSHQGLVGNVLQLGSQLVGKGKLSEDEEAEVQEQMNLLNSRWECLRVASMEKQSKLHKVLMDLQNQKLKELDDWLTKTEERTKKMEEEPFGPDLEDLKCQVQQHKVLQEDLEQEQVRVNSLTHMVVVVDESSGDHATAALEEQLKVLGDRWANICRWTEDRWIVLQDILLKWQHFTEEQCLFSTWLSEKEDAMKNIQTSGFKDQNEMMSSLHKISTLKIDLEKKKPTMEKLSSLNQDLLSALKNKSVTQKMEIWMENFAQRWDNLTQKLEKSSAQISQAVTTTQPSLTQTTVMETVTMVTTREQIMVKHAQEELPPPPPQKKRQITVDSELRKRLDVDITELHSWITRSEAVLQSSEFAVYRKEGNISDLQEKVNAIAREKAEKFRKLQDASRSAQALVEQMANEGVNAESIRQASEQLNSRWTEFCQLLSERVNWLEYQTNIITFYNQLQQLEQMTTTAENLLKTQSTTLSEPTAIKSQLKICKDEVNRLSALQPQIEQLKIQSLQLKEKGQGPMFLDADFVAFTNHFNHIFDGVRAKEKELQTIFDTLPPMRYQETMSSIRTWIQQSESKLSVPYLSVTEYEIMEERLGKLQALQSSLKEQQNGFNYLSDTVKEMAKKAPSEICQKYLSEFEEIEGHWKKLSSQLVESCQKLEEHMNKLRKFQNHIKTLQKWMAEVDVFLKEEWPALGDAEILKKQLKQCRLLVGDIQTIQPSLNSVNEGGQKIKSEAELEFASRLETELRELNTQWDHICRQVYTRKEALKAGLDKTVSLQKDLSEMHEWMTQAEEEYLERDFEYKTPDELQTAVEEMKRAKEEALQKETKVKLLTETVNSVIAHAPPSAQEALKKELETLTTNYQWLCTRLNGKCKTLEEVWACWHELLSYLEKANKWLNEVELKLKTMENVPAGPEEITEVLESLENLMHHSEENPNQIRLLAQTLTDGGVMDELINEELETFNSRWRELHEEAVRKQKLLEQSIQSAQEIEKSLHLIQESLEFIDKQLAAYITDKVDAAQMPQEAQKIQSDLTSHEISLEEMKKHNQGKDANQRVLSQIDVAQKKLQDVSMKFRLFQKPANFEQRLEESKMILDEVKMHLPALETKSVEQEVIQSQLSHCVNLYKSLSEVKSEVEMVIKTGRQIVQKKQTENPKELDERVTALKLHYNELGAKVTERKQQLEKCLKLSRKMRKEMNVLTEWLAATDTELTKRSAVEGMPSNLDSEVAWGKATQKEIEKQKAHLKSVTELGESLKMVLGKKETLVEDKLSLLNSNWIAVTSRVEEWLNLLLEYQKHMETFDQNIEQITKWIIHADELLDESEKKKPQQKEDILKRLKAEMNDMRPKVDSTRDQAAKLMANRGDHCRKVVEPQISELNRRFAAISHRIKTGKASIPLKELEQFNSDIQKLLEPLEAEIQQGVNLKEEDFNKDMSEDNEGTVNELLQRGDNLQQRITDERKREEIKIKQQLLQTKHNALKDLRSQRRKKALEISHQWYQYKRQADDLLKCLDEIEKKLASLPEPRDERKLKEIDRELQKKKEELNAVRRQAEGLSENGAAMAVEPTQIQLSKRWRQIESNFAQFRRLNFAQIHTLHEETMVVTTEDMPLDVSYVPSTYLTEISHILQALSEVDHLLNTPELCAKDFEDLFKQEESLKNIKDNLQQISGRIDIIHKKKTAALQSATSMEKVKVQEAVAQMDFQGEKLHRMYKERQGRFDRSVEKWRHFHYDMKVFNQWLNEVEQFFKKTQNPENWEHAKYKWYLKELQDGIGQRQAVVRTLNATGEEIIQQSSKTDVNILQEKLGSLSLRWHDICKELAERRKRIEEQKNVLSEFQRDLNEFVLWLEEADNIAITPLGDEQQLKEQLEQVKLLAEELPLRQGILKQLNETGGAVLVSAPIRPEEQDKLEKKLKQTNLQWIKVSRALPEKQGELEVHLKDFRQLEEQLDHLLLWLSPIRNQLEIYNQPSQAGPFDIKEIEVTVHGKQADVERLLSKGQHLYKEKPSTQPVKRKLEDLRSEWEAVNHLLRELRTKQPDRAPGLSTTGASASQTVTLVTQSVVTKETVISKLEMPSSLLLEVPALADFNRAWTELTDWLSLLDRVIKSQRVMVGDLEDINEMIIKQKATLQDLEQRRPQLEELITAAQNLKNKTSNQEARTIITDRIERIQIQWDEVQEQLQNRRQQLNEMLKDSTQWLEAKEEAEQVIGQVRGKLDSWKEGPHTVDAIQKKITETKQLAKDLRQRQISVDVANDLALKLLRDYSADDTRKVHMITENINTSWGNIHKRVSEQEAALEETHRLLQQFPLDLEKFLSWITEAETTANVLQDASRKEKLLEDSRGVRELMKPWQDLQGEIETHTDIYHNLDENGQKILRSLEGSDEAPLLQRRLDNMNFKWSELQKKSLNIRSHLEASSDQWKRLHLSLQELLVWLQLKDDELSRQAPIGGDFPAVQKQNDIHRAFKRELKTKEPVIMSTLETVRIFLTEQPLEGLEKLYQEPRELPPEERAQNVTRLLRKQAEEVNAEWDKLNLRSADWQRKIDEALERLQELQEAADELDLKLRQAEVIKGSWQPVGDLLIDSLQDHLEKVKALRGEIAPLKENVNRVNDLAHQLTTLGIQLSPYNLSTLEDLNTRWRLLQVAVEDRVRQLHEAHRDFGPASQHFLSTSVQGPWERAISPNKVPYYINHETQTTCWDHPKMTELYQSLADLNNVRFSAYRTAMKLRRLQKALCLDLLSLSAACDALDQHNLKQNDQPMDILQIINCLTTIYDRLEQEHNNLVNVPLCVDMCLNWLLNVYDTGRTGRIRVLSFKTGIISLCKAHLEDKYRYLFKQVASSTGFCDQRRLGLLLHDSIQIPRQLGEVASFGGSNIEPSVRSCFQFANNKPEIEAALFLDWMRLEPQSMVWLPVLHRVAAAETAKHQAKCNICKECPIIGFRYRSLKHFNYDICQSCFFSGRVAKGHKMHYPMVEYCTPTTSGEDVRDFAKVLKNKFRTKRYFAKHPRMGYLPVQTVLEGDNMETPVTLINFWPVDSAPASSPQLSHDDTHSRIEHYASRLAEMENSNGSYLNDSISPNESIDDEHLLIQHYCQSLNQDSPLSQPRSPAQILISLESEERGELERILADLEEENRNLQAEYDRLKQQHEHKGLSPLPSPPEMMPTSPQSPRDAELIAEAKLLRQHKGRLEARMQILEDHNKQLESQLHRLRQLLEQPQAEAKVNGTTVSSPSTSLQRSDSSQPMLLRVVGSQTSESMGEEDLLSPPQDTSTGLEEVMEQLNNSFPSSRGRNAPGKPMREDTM
UniProt P07310: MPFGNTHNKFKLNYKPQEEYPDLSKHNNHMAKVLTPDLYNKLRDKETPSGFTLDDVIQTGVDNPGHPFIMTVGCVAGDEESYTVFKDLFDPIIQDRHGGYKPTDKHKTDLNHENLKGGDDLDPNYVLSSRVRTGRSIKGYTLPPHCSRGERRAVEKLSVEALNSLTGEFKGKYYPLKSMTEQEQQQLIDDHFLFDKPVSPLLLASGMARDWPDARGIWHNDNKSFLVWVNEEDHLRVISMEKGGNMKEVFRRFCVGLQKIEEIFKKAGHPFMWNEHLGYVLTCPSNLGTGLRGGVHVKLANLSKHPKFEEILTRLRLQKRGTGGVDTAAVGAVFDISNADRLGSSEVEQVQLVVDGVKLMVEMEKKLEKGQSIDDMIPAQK

Experiments:
[1] = biological target: SUR2A subunit of the KATP channel (mouse (endogenous in heart)) (UniProt P70170); assay: co-IP; wt mouse heart lysate in buffer II; IP with anti Kir6.2 or anti SUR2A overnight at 4°C, protein A/G PLUS-Agarose; western blot for CKm, Dys427, Kir6.2, SUR2A
[2] = biological target: T1, Kir6.2 subunit of the KATP channel (mouse (endogenous in heart)) (UniProt Q61743); assay: as above
T1 sequence: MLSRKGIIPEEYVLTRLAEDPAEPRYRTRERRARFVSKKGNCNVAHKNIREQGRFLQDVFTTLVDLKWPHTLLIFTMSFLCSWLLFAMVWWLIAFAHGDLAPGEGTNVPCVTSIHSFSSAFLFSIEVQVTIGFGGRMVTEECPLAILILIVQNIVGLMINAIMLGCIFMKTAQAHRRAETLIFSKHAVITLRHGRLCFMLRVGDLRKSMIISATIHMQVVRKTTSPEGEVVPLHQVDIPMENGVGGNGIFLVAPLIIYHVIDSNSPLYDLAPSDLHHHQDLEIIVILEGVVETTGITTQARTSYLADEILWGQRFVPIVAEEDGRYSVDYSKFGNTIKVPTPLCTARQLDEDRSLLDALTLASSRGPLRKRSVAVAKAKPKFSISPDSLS

[3] = biological target: full-length dystrophin (Dys427) (mouse (endogenous in heart)) (UniProt P11531); assay: co-IP; wt mouse heart (ventricular wall) lysate in buffer II (HEPES 20 mM, NaCl 150 mM, Triton X100 1%, pH 7.5); IP with anti-DYS1 (anti Dys427) overnight at 4°C, protein A/G PLUS-Agarose; western blot; mdx lysate as control without dystrophin
[4] = biological target: full-length dystrophin (Dys427) (mouse (endogenous in heart)) (UniProt P11531); assay: as above; remark: listed apart in the source

binding [1]: binds
binding [2]: binds
Molecule: full-length dystrophin (Dys427) (from UniProt P11531 1-3678)

binding [4]: binds
B2: α-Syntrophin (protein, UniProt Q61234 1-503)
chain: MASGRRAPRTGLLELRCGAGSGAGGERWQRVLLSLAEDALTVSPADGEPGPEPEPAQLNGAAEPGAAPPQLPEALLLQRRRVTVRKADAGGLGISIKGGRENKMPILISKIFKGLAADQTEALFVGDAILSVNGEDLSSATHDEAVQALKKTGKEVVLEVKYMKEVSPYFKNSAGGTSVGWDSPPASPLQRQPSSPGPQPRNLSEAKHVSLKMAYVSRRCTPTDPEPRYLEICAADGQDAVFLRAKDEASARSWAGAIQAQIGTFIPWVKDELQALLTATGTAGSQDIKQIGWLTEQLPSGGTAPTLALLTEKELLFYCSLPQSREALSRPTRTAPLIATSSAHRLVHSGPSKGSVPYDAELSFALRTGTRHGVDTHLFSVESPQELAAWTRQLVDGCHRAAEGIQEVSTACTWNGRPCSLSVHIDKGFTLWAAEPGAARAMLLRQPFEKLQMSSDDGTSLLFLDFGGAEGEIQLDLHSCPKTMVFIIHSFLSAKVTRLGLLA

Continued, molecule first:

Molecule: creatine kinase muscle isoform (CKm) (from UniProt P07310 1-381) (enzyme)
binding [3]: binds

B1: Kir6.2 subunit of the KATP channel (protein, UniProt Q61743 1-390)
chain: T1 sequence
binding [4]: binds
